Results are given in words; binding and its absence hold for the method and conditions named. In cells and extracts the contact can be indirect. Here binding means that the protein was enriched with, or labelled near, the bait; the list need not be complete.
Target: RNF43-BirA*-HA fusion protein (human) (UniProt Q68DV7)
Assay: proximity labelling

Chains of the proteins cited; added tags and fusions are not shown. Residues count along the entry.
UniProt Q68DV7, residues 24-783: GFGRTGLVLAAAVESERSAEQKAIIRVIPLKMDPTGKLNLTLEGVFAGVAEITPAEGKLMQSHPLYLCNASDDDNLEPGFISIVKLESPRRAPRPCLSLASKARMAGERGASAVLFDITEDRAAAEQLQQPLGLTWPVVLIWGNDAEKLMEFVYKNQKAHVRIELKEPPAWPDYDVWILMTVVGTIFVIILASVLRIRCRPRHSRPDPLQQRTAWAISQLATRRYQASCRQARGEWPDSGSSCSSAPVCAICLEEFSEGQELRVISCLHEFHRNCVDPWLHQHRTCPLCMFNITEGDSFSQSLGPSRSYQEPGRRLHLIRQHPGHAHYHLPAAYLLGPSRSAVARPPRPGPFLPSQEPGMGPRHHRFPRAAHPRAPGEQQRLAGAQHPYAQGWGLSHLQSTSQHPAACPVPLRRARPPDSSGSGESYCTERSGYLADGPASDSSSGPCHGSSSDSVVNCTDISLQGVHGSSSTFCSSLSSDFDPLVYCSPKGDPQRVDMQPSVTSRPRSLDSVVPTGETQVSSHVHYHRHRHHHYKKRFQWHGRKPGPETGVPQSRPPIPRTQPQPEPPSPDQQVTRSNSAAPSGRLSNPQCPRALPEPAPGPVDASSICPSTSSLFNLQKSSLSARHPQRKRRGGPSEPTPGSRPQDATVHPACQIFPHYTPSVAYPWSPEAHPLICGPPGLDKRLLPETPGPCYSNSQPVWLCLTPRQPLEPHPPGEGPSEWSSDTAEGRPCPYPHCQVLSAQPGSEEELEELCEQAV
UniProt O15169: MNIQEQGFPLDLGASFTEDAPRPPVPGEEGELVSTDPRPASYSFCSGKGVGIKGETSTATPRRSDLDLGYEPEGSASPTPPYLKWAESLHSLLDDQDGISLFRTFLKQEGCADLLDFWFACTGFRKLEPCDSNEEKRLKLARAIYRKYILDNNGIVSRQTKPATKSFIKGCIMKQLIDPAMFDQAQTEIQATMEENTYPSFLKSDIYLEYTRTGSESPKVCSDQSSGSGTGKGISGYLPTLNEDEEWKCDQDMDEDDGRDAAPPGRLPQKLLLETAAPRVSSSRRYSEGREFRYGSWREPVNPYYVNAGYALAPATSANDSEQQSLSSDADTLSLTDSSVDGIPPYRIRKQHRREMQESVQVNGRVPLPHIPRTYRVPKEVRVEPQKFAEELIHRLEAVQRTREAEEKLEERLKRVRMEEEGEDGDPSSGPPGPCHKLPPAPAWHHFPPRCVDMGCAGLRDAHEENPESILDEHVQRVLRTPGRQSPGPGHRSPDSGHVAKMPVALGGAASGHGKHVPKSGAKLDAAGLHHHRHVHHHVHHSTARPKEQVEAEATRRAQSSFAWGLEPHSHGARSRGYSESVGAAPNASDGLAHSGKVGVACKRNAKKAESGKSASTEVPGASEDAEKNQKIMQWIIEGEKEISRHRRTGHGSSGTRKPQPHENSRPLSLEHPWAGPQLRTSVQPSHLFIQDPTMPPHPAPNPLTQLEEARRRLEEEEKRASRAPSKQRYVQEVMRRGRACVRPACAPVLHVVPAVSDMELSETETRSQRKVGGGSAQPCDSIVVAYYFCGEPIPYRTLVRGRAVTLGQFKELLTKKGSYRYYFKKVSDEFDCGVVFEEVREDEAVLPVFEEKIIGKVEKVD
UniProt P49674: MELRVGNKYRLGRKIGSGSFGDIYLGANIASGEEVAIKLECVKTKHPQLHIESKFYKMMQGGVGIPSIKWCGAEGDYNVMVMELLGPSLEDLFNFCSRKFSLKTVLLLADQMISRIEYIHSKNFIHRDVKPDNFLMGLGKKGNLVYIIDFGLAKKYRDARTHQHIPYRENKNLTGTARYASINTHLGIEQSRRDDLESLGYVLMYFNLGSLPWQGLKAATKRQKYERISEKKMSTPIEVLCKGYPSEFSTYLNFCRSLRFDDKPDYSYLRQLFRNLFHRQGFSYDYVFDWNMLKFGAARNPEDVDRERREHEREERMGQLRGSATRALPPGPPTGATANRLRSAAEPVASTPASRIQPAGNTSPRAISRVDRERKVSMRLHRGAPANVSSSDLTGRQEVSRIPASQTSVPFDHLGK

Substance | binding
Axin1, endogenous (from UniProt O15169 1-862) | binds
Casein kinase 1 epsilon, endogenous (from UniProt P49674 1-416) (enzyme) | binds

Source: article doi:10.1101/748574
